PubChem BioAssay AID743121, NCATS | 2013
Aim: 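Genes whose silencing strengthens cell killing by camptothecin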 (primary screen). Cell system: MDA-MB-231 cells, a human breast cancer line. Reagent: single siRNA against human genes, 20 nM siRNA (0.8 pmol per well). Duration: 120 h (drug added 48 h after transfection, read 72 h later). Conditions: camptothecin 20 nM (about EC30) for 72 h; vehicle 0.1% DMSO in parallel plates. Measurement: 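CellTiter-Glo ATP signal, scaled to control siRNA as percent viability; sensitisation given as log2 of untreated divided by camptothecin-treated viability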. Reading the numbers: log2 vehicle/camptothecin viability: higher = stronger sensitisation to camptothecin; viability with camptothecin: higher = more viable cells. Rule for the call: 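Each gene scored by redundant siRNA activity (RSA) over its individual siRNA ratios; a gene is called active at p < 0.001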.
The whole screen tested about 26,000 reagents; shown is an unselected part. In the full data, 167 (0.63%) got an active call. 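Calls are per gene from RSA p-values that are not deposited; an individual active-marked siRNA can sensitise only weakly.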 The numbers tell different reagents against one gene apart. Further read-outs or replicates are left out here. Reagent sequences are not shown.

target gene,reagent no.,log2 vehicle/camptothecin viability,viability with camptothecin (% of control),outcome
USP32 (ubiquitin specific peptidase 32),1,-0.227,75.8,inactive
USP32 (ubiquitin specific peptidase 32),2,-0.187,41.1,inactive
USP32 (ubiquitin specific peptidase 32),3,-0.0121,87.5,inactive
USP32 (ubiquitin specific peptidase 32),4,0.159,82.2,inactive
NDUFV1 (NADH:ubiquinone oxidoreductase core subunit V1),1,-0.321,65.1,inactive
NDUFV1 (NADH:ubiquinone oxidoreductase core subunit V1),2,-0.314,82.8,inactive
NDUFV1 (NADH:ubiquinone oxidoreductase core subunit V1),3,-0.164,92,inactive
NDUFV1 (NADH:ubiquinone oxidoreductase core subunit V1),4,-0.238,55.6,inactive
BTD (biotinidase),1,-0.234,83.7,inactive
BTD (biotinidase),2,-0.00921,84.9,inactive
BTD (biotinidase),3,0.153,63,inactive
BTD (biotinidase),4,0.138,104,inactive

Copied from the list:
Under “viability with camptothecin (% of control)”, USP32 (ubiquitin specific peptidase 32) #1 shows 75.8
NDUFV1 (NADH:ubiquinone oxidoreductase core subunit V1) #2, log2 vehicle/camptothecin viability: -0.314

The list goes on.
target gene,reagent no.,log2 vehicle/camptothecin viability,viability with camptothecin (% of control),outcome
OPCML (opioid binding protein/cell adhesion molecule like),1,-0.0783,24.3,inactive
OPCML (opioid binding protein/cell adhesion molecule like),2,-0.0955,82.2,inactive
OPCML (opioid binding protein/cell adhesion molecule like),3,0.051,56,inactive
OPCML (opioid binding protein/cell adhesion molecule like),4,0.00949,92.7,inactive
OPCML (opioid binding protein/cell adhesion molecule like),5,0.0475,86.1,inactive
"LIPC (lipase C, hepatic type)",1,-0.0961,81.4,inactive
"LIPC (lipase C, hepatic type)",2,-0.00959,68.7,inactive
"LIPC (lipase C, hepatic type)",3,-0.155,46.4,inactive
"LIPC (lipase C, hepatic type)",4,-0.225,92.9,inactive
ASB7 (ankyrin repeat and SOCS box containing 7),1,0.191,79.3,inactive
ASB7 (ankyrin repeat and SOCS box containing 7),2,0.162,97,inactive
ASB7 (ankyrin repeat and SOCS box containing 7),3,-0.476,113,inactive
ASB7 (ankyrin repeat and SOCS box containing 7),4,0.0106,99.8,inactive
SNAP25 (synaptosome associated protein 25),1,-0.122,78.8,inactive
SNAP25 (synaptosome associated protein 25),2,-0.174,61.4,inactive
SNAP25 (synaptosome associated protein 25),3,-0.0991,81,inactive
SNAP25 (synaptosome associated protein 25),4,0.273,78.9,inactive
